Experiment: Olfactive description

| Compound | Olfactive description |
| --- | --- |
| CC(C)C1CCC(C)(C)CC1(CO)CO (single isomer, unassigned) [Compound 30, (2-isopropyl-5,5-dimethylcyclohexane-1,1-diyl)dimethanol] | Odorless |
| CC(C)[C@@H]1CC[C@@H](C)CC1(CO)CO [Compound 1, ((2S,5R)-2-isopropyl-5-methylcyclohexane-1,1-diyl)dimethanol] | Almost odorless, fresh |
| CC1OCC2(CO1)C[C@H](C)CC[C@H]2C(C)C (stereo partly drawn) [Compound 2, (7S,1OR)-7-isopropyl-3,10-dimethyl-2,4-dioxaspiro[5.5]undecane] | Fresh, minty, fruity |
| CC(C)[C@@H]1CC[C@@H](C)CC12COC(C)(C)OC2 [Compound 3, (7S,1OR)-7-isopropyl-3,3,10-trimethyl-2,4-dioxaspiro[5.5]undecane] | Weak, fresh, woody |
| CCC1OCC2(CO1)C[C@H](C)CC[C@H]2C(C)C (stereo partly drawn) [Compound 4, (7S,1OR)-3-ethyl-7-isopropyl-10-methyl-2,4-dioxaspiro[5.5]undecane] | Fresh, fruity, exotic |
| COc1cc(C2OCC3(CO2)C[C@H](C)CC[C@H]3C(C)C)ccc1O (stereo partly drawn) [Compound 5, 4-((7S,10R)-7-isopropyl-10-methyl-2,4-dioxaspiro[5.5]undecan-3-yl)-2-methoxyphenol] | Almost odorless, vanilla |
| CC(C)[C@@H]1CC[C@@H](C)CC12COCOC2 [Compound 6, (7S,1OR)-7-isopropyl-10-methyl-2,4-dioxaspiro[5.5]undecane] | Weak, red fruits |
| CC(C)[C@@H]1CC[C@@H](C)CC12COC1(C[C@H](C)CC[C@H]1C(C)C)OC2 (stereo partly drawn) [Compound 7, (1S,4R,10S,13R)-1,10-diisopropyl-4,13-dimethyl-7,16-dioxadispiro [5.2.5^90.2^6]hexadecane] | Odorless |
| CC(C)[C@@H]1CC[C@@H](C)CC1(C=O)C=O [Compound 8, (2S,5R)-2-isopropyl-5-methylcyclohexane-1,1-dicarbaldehyde] | Fresh, minty |
| CC(=O)OCC1(COC(C)=O)C[C@H](C)CC[C@H]1C(C)C [Compound 9, ((2S,5R)-2-isopropyl-5-methylcyclohexane-1,1-diyl)bis(methylene) diacetate] | Odorless |
| CC1CC(C)(C)CC(CO)(CO)C1 (stereo not drawn) [Compound 10, (3,3,5-trimethylcyclohexane-1,1-diyl)dimethanol] | Odorless |
| CC1CC(C)(C)CC2(COC(C)OC2)C1 (stereo not drawn) [Compound 11, 3,8,8,10-tetramethyl-2,4-dioxaspiro[5.5]undecane] | Woody, ambery, fruity |
| CC1CC(C)(C)CC2(COC(C)(C)OC2)C1 (stereo not drawn) [Compound 12, 3,3,8,8,10-pentamethyl-2,4-dioxaspiro[5.5]undecane] | Woody, fruity |
| CCC1(C)OCC2(CO1)C[C@H](C)CC[C@H]2C(C)C (stereo partly drawn) [Compound 13, (7S,1OR)-3-ethyl-7-isopropyl-3,10-dimethyl-2,4-dioxaspiro[5.5]undecane] | Powerful, woody, algae |
| CCCC1OCC2(CO1)C[C@H](C)CC[C@H]2C(C)C (stereo partly drawn) [Compound 14, (7S,1OR)-7-isopropyl-10-methyl-3-propyl-2,4-dioxaspiro[5.5]undecane] | Cheesy, glue |
| CC(C)C1OCC2(CO1)C[C@H](C)CC[C@H]2C(C)C (stereo partly drawn) [Compound 15, (7S,1OR)-3,7-diisopropyl-10-methyl-2,4-dioxaspiro[5.5]undecane] | Weak, chocolate |
| CCC(C)C1OCC2(CO1)C[C@H](C)CC[C@H]2C(C)C (stereo partly drawn) [Compound 16, (7S,1OR)-3-(sec-butyl)-7-isopropyl-10-methyl-2,4-dioxaspiro[5.5]undecane] | Weak, ethereal |
| COCC1(COC)C[C@H](C)CC[C@H]1C(C)C [Compound 17, (2S,5R)-2-isopropyl-1,1-bis(methoxymethyl)-5-methylcyclohexane] | Fresh, weak, grapefruit |
| CC(C)[C@@H]1CC[C@@H](C)CC12COC(c1ccccc1)OC2 (stereo partly drawn) [Compound 18, (7S,1OR)-7-isopropyl-10-methyl-3-phenyl-2,4-dioxaspiro[5.5]undecane] | Weak, almond |
| CC1(C)CCCC(CO)(CO)C1 [Compound 20, (3,3-dimethylcyclohexane-1,1-diyl)dimethanol] | Almost odorless, solvent |

| Compound | Olfactive description |
| --- | --- |
| CC(C)[C@@H]1CC[C@@H](C)CC1(COC(=O)CCC(=O)O)COC(=O)CCC(=O)O [Compound 21, 4,4′-((((2S,5R)-2-isopropyl-5-methylcyclohexane-1,1-diyl)bis (methylene))bis(oxy))bis(4-oxobutanoic acid)] | Odorless |
| CC(C)[C@@H]1CC[C@@H](C)CC12COC(C)(c1ccccc1)OC2 (stereo partly drawn) [Compound 22, (7S,1OR)-7-isopropyl-3,10-dimethyl-3-phenyl-2,4-dioxaspiro[5.5]undecane] | Powdery, vanilla, mimosa |
| CC(C)[C@@H]1CC[C@@H](C)CC12COC(c1ccccn1)OC2 (stereo partly drawn) [Compound 23, 2-((7S,10R)-7-isopropyl-10-methyl-2,4-dioxaspiro[5.5]undecan-3-yl) pyridine] | Green, mimosa |
| CC(C)[C@@H]1CC[C@@H](C)CC12COC(c1cccs1)OC2 (stereo partly drawn) [Compound 24, (7S,1OR)-7-isopropyl-10-methyl-3-(thiophen-2-yl)-2,4-dioxaspiro[5.5]undecane] | Weak, green, bread crust |
| CSCCC1OCC2(CO1)C[C@H](C)CC[C@H]2C(C)C (stereo partly drawn) [Compound 25, (7S,1OR)-7-isopropyl-10-methyl-3-(2-(methylthio)ethyl)-2,4-dioxaspiro [5.5]undecane] | Metallic, garlic, sardine |
| CC1OCC2(CCCC(C)(C)C2)CO1 (stereo not drawn) [Compound 26, 3,8,8-trimethyl-2,4-dioxaspiro[5.5]undecane] | Camphor, violet, frais |
| CCC(C)C1CCCCC1(CO)CO (stereo not drawn) [Compound 27, (2-(sec-butyl)cyclohexane-1,1-diyl)dimethanol] | Almost odorless, solvent |
| CCOC(=O)C1OCC2(CO1)C[C@H](C)CC[C@H]2C(C)C (stereo partly drawn) [Compound 28, Ethyl (7S,1OR)-7-isopropyl-10-methyl-2,4-dioxaspiro[5.5]undecane-3-carboxylate] | Odorless |
| CC(C)[C@@H]1CC[C@@H](C)CC1(CCO)CCO [Compound 29, 2,2′-((2S,5R)-2-isopropyl-5-methylcyclohexane-1,1-diyl)bis(ethan-1-ol)] | Almost odorless, solvent |
| CCC(C)C1CCCCC12COC(C)OC2 (stereo not drawn) [Compound 31, 7-(sec-butyl)-3-methyl-2,4-dioxaspiro[5.5]undecane] | Animalic, blackcurrent, ambery |
| CC(=O)OCC1(CO)C[C@H](C)CC[C@H]1C(C)C (stereo partly drawn) [Compound 32, ((2S,5R)-1-(hydroxymethyl)-2-isopropyl-5-methylcyclohexyl)methyl acetate] | Almost odorless, fresh |
| CC1OCC2(CO1)CC(C)(C)CCC2C(C)C (stereo not drawn) [Compound 33, 7-isopropyl-3,10,10-trimethyl-2,4-dioxaspiro[5.5]undecane] | Woody, dirty, ambery |
| CC(C)[C@@H]1CC[C@@H](C)CC1(C(C)O)C(C)O (stereo partly drawn) [Compound 34, 1,1′-((2S,5R)-2-isopropyl-5-methylcyclohexane-1,1-diyl)bis(ethan-1-ol)] | Almost odorless, fresh |
| C=C(C)[C@@H]1CC[C@@H](C)C[C@H]1C(CO)CO [Compound 35, 2-((1R,2R,5R)-5-methyl-2-(prop-1-en-2-yl)cyclohexyl)propane-1,3-diol] | Almost odorless, aromatic |
| C=C(C)[C@@H]1CC[C@@H](C)C[C@H]1C1COC(C)OC1 (stereo partly drawn) [Compound 36, 2-methyl-5-((1R,2R,5R)-5-methyl-2-(prop-1-en-2-yl)cyclohexyl)-1,3-dioxane] | Almost odorless, solvent |
| CC(C)[C@@H]1CC[C@@H](C)C[C@H]1C(CO)CO [Compound 37, 2-((1R,2S,5R)-2-isopropyl-5-methylcyclohexyl)propane-1,3-diol] | Almost odorless, rosy |
| CC(C)[C@@H]1CC[C@@H](C)CC1(CO)COCc1ccccc1 (stereo partly drawn) [Compound 38, ((2S,5R)-1-((benzyloxy)methyl)-2-isopropyl-5-methylcyclohexyl) methanol] | Almost odorless, solvent |
| CC(C)[C@@H]1CC[C@@H](C)CC1(CO)C(=O)O (stereo partly drawn) [Compound 39, (2S,5R)-1-(hydroxymethyl)-2-isopropyl-5-methylcyclohexane-1-carboxylic acid] | Almost odorless |
| CC1(C)CC(C)(C)CC(CO)(CO)C1 [Compound 40, (3,3,5,5-tetramethylcyclohexane-1,1-diyl)dimethanol] | Almost odorless, fresh |

From patent publication US20250154123A1, “COOLING COMPOUNDS AND COMPOSITIONS” (V. MANE FILS, priority 2022, published 2025)
